PubChem BioAssay AID504808, Drosophila RNAi Screening Center | 2011
The deposit covers about 21,000 reagents; shown is a random part of those that have a named target and a result. Of all reagents, 18 (0.084%) got an active call. 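Raw counts without plate normalisation, one of two replicates; the ratio scores behind the calls were not deposited.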 Reagents against one gene are numbered here. The record does not give: the amount of reagent, the time to read-out.

- Screen: 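Fly genes required to hold E2F transcription in check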 (primary screen)
- System: Drosophila S2 cells
- Reagents: long dsRNA against Drosophila genes
- Measurement: 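Firefly luciferase driven by E2F sites, normalised to Renilla luciferase on the same minimal promoter, measured by plate reader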
- Direction: E2F firefly: higher = more E2F reporter activity; Renilla normaliser: higher = more normaliser reporter signal
- Rule for the call: 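Called active if the normalised E2F reporter went up by over 50%; the cutoff is arbitrary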

no.	predicted target	reagent	E2F firefly, rep 1	Renilla normaliser, rep 1	Outcome
1	tsh (teashirt)	1	1.07e5	4596	inactive
2	CG8841	1	3150	193	inactive
3	SelT (Selenoprotein T)	1	89267	4295	inactive
4	Csl4	1	1.50e5	5225	inactive
5	CG5953	1	1.40e5	6549	inactive
6	CG5953	2	76611	3582	inactive
7	dgt5 (dim gamma-tubulin 5)	1	3644	191	inactive
8	Jhbp5 (Juvenile hormone binding protein 5)	1	1.20e5	6010	inactive
9	CG8087	1	1.35e5	5860	inactive
10	CG14220	1	94891	4194	inactive
11	Not1	1	1.50e5	5573	inactive
12	Not1	2	3473	248	inactive
13	CG18179	1	1.06e5	4911	inactive
14	Cpr72Eb (Cuticular protein 72Eb)	1	1.76e5	8683	inactive
15	CG15536	1	1.37e5	7196	inactive
16	RpL7A (Ribosomal protein L7A)	1	49662	4838	inactive
17	FRG1 (FSHD region gene 1)	1	1.13e5	6438	inactive
18	crc (cryptocephal)	1	1.02e5	4350	inactive
19	CG30283	1	1.06e5	5017	inactive
20	Atx-1 (Ataxin 1)	1	1.08e5	5092	inactive
21	Tsp29Fa (Tetraspanin 29Fa)	1	1.48e5	5279	inactive
22	Vamp7 (Vesicle-associated membrane protein 7)	1	1.38e5	4286	inactive
23	CG7789	1	1774	928	inactive
24	CG6984	1	73142	3658	inactive
25	Fkbp12 (FK506-binding protein 12kD)	1	1.31e5	5570	inactive
26	CG33465	1	1.23e5	4043	inactive
27	DCTN2-p50 (Dynactin 2, p50 subunit)	1	3207	209	inactive
28	Ppm1	1	93615	4503	inactive
29	sqa (spaghetti-squash activator)	1	3058	188	inactive
30	CG11601	1	1.61e5	5084	inactive
31	MetRS-m (Methionyl-tRNA synthetase, mitochondrial)	1	63095	3363	inactive
32	MetRS-m (Methionyl-tRNA synthetase, mitochondrial)	2	1.15e5	5798	inactive
33	CG13847	1	68393	3331	inactive
34	Trc8 (TRC8 ring finger protein)	1	1692	1047	inactive
